Record: PubChem BioAssay AID1224828 (NIAID, 2016)
The whole screen tested about 17,000 reagents; below is a random part of them. 762 of all reagents (4.5%) count as active. 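Active calls include both raised and lowered p65 entry, mostly lowered; wells with fewer than 50 cells lack a z-score.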 The raw values are shown without normalisation.

- Assay: 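Knock-downs that increase or decrease LPS-induced p65 nuclear translocation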 (primary screen)
- Cells: mouse RAW264.7 G9 macrophage reporter cells (GFP-p65, Tnf promoter-mCherry)
- Knock-down reagent: siRNA pool against mouse genes, 100 nM
- Timing: 2 days siRNA transfection, then 40 min LPS before fixation
- Treatment: LPS (Salmonella minnesota R595) at 10 ng/ml
- Measured: 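Imaged p65 nuclear translocation ratio, normalised to the plate median, converted to robust z-scores and averaged across two replicates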
- Direction: p65 translocation robust z-score: higher = more nuclear NF-kappaB p65 after LPS than the plate median; nuclear/cytoplasmic p65 ratio: higher = more nuclear NF-kappaB p65
- Rule for the call: 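Active if robust z is above 3.3 (negative regulators) or below -1.56, the Tlr4 control median (positive regulators); activity score 50 or more; control wells not called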
- Calls: active = hit (p65 shift raised or lowered); inactive = no clear change

Or10z1 (GeneID 258710)
- p65 translocation robust z-score: -0.12
- nuclear/cytoplasmic p65 ratio, rep 1: 1.47
- nuclear/cytoplasmic p65 ratio, rep 2: 1.22
- low cell count flag: enough cells to score
- Call: inactive

Astn1 (GeneID 11899)
- p65 translocation robust z-score: -1
- nuclear/cytoplasmic p65 ratio, rep 1: 1.38
- nuclear/cytoplasmic p65 ratio, rep 2: 1.45
- low cell count flag: enough cells to score
- Call: inactive

Cysrt1 (GeneID 67859)
- nuclear/cytoplasmic p65 ratio, rep 1: 1.4
- nuclear/cytoplasmic p65 ratio, rep 2: 1.16
- low cell count flag: fewer than 50 cells per well; well left out of scoring
- Call: inactive

Hsph1 (GeneID 15505)
- p65 translocation robust z-score: -0.11
- nuclear/cytoplasmic p65 ratio, rep 1: 1.42
- nuclear/cytoplasmic p65 ratio, rep 2: 1.37
- low cell count flag: enough cells to score
- Call: inactive

Or5b104 (GeneID 258568)
- nuclear/cytoplasmic p65 ratio, rep 1: 1.48
- nuclear/cytoplasmic p65 ratio, rep 2: 1.23
- low cell count flag: fewer than 50 cells per well; well left out of scoring
- Call: inactive

Ccdc125 (GeneID 76041)
- nuclear/cytoplasmic p65 ratio, rep 1: 1.17
- nuclear/cytoplasmic p65 ratio, rep 2: 1.01
- low cell count flag: fewer than 50 cells per well; well left out of scoring
- Call: inactive

Lypd6 (GeneID 320343)
- p65 translocation robust z-score: 2.08
- nuclear/cytoplasmic p65 ratio, rep 1: 1.82
- nuclear/cytoplasmic p65 ratio, rep 2: 1.56
- low cell count flag: enough cells to score
- Call: inactive

Gphn (GeneID 268566)
- p65 translocation robust z-score: 1.89
- nuclear/cytoplasmic p65 ratio, rep 1: 1.64
- nuclear/cytoplasmic p65 ratio, rep 2: 1.66
- low cell count flag: enough cells to score
- Call: inactive

Spta1 (GeneID 20739)
- p65 translocation robust z-score: 0.67
- nuclear/cytoplasmic p65 ratio, rep 1: 1.5
- nuclear/cytoplasmic p65 ratio, rep 2: 1.8
- low cell count flag: enough cells to score
- Call: inactive

Dstn (GeneID 56431)
- p65 translocation robust z-score: -0.92
- nuclear/cytoplasmic p65 ratio, rep 1: 1.3
- nuclear/cytoplasmic p65 ratio, rep 2: 1.25
- low cell count flag: enough cells to score
- Call: inactive

Ankrd24 (GeneID 70615)
- p65 translocation robust z-score: -0.14
- nuclear/cytoplasmic p65 ratio, rep 1: 1.47
- nuclear/cytoplasmic p65 ratio, rep 2: 1.85
- low cell count flag: enough cells to score
- Call: inactive

Tbc1d4 (GeneID 210789)
- nuclear/cytoplasmic p65 ratio, rep 1: 1.05
- nuclear/cytoplasmic p65 ratio, rep 2: 1.3
- low cell count flag: fewer than 50 cells per well; well left out of scoring
- Call: inactive

Unc119 (GeneID 22248)
- p65 translocation robust z-score: 0.04
- nuclear/cytoplasmic p65 ratio, rep 1: 1.52
- nuclear/cytoplasmic p65 ratio, rep 2: 1.5
- low cell count flag: enough cells to score
- Call: inactive

Ifitm3 (GeneID 66141)
- p65 translocation robust z-score: -0.83
- nuclear/cytoplasmic p65 ratio, rep 1: 1.57
- nuclear/cytoplasmic p65 ratio, rep 2: 1.2
- low cell count flag: enough cells to score
- Call: inactive
